Assay results from US9937265B2, “Self-assembling peptide and polysaccharide complexes” (University of Leeds, priority 2013, dated 2018).

How the values were obtained:
[1] = Transmission electron microscopy study of peptide:glycosaminoglycan gels; type: physicochemical; details: TEM
From the text: Transmission Electron Microscopy Study of Peptide: Glycosaminoglycan Gels
Electron microscope (EM) grids (copper 300 mesh) were coated with carbon prior to use, by the flotation of a carbon film from a mica sheet onto the grids. The EM grids were then glow discharged prior to sample application to ensure adhesion of the sample to the EM grid. Peptide gels prepared in phosphate buffered saline solution were quickly diluted by various factors in pure water. The EM grids were touched onto the peptide solutions for one minute. The grid was air-dried and then negatively stained with uranyl acetate solution (4% w/v) for 20 seconds and air-dried. TEM images were obtained using a Philips CM10 electron microscope operating at 80 kV accelerating voltage. Images were obtained quickly to avoid artefacts and destruction of the sample.

[2] = Visual observation of gelation of peptide and peptide:GAG samples (systematic mixing study); type: physicochemical; details: what triggers gelation, 20 mg/ml
Experimental: Preparation of Peptide Solutions
Solutions of peptides were prepared directly in either D2O or H2O containing either 130 or 200 mM NaCl or PBS. Peptide concentrations in the millimolar range given for the NMR studies were values multiplied by an appropriate factor to account for the actual percentage peptide content. The samples were vortexed for 20 seconds, and then sonicated for 15 minutes. Solution pD was measured and adjusted to either 7.4 or 6.0±0.5 using a calibrated pH meter and the relation pD =pH meter reading +0.417. Any adjustment of pD, if necessary, was made with minimal μL volumes of either HCl or DCl and/or either NaOH or NaOD. Finally, solution vials were closed, sealed with PTFE tape, and then warmed to approximately 80° C. to maximise peptide solubility. Solutions were left to equilibrate at room temperature.
Preparation of Peptide:Glycosaminoglycan Gels.
The concentration of peptide was kept constant for each sample (20 mg/ml) and the molar ratio of GAG subunit to one peptide was increased. The samples were named by the number of GAG subunits to each peptide present e.g. P11-12:GAG 1:10=one P11-12 peptide monomer to ten GAG dimer subunits. GAG was added to peptide solutions after preparation as stated above. The mixtures were vortexed as heated again to ensure complete mixing.
The effects of mixing chondroitin sulphate GAG with the peptides were investigated. It was hypothesised that the charged GAG chains would interact electrostatically with the charged peptides. To establish whether such an interaction was possible, visual observations of a systematic mixing study was carried out and the morphology of the aggregates formed during mixing studied using TEM. • P11-4: […]

Substance | width of ribbons ([1]; negatively stained, samples months old) | Trigger [2] | twist pitch of helical structures ([1]; diluted to approximately 20 μM) | twist pitch of tubular structures ([1]; diluted to approximately 20 μM) [nm] | width of tubular structures ([1]; diluted to approximately 20 μM) [nm]
Ac-SSRFEWEFESS-NH2 [Peptide P11-9] | 3-5 nm | pH |  |  | 
Ac-QQRFEWEFEQQ-NH2 [Peptide P11-4] |  | pH |  |  | 
CH3CO-Q-Q-R-F-O-W-O-F-E-Q-Q-NH2 [Peptide P11-8] |  | pH |  |  | 
CH3CO-S-S-R-F-O-W-O-F-E-S-S-NH2 [Peptide P11-12] |  | pH | approx 230 nm | ~165 | 25±2
